Test results taken from PubChem BioAssay AID2417 (National Center for Advancing Translational Sciences (NCATS), 2010).
Hit rate of the full screen: of about 140,000 compounds, about 4,300 (3.1%) were called active. This list was built around the results that the source calls inconclusive (neither active nor inactive); the mix of calls is not that of the screen.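 How the source made its calls: active means readout at or below -70, meaning at least 70% loss of cells showing the perinucleolar compartment, a nuclear body marking cancer cells; inconclusive means readout between -30 and a set limit; inactive means the rest.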

Test: High Content Assay for Compounds that inhibit the Assembly of the Perinucleolar Compartment;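 further: plate controls were DMSO wells for no effect and camptothecin positive control wells for full effect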
Conditions: PC3M PTB-GFP, PNC prevalence imaging, 16 h; at 10 µM; hits give low values
Procedure, shortened: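 Compounds are pinned in duplicate onto adhered PC3M cells stably expressing GFP-tagged PTB and incubated 16 h at 37 C. Cells are then fixed, nuclei stained with Hoechst, and PNC-positive cells counted.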
For `CCCNC(=O)c1cc2c3ccccc3n(C)c2s1`, the activity change (PNC), negative = inhibition was inactive: 21%.
In the case of `CN=c1sc2ccccc2n1CC(O)COCc1ccco1` (stereo not given), the activity change (PNC), negative = inhibition is reported as inconclusive: -31.7%.
With `Cc1cnc(NC(=O)CN(C)S(=O)(=O)c2ccc(Cl)cc2)s1` the activity change (PNC), negative = inhibition was inactive: 15.9%.
In the case of `CCCCCn1c(N(C)Cc2ccccc2)nc2c1c(=O)[nH]c(=O)n2C`, the activity change (PNC), negative = inhibition is reported as inconclusive: -50.8%.
With `O=C1N/C(=C\c2ccc(N3CCOCC3)c(F)c2)C(=O)N1Cc1ccccc1` the activity change (PNC), negative = inhibition was inactive: -28%.
In the case of `COc1ccc(C(=O)NCC(=O)N/N=C/C(C)=C/c2ccco2)cc1OC`, the activity change (PNC), negative = inhibition is reported as inconclusive: -54.4%.
For `CC(Cn1cnc2ccccc21)C(=O)O` (stereo not given), the activity change (PNC), negative = inhibition was active: -100%.
In the case of `CCN(CC)CC(=O)Nc1ccc2c(c1)N(C(=O)CN(CC)CC)c1ccccc1CC2`, the activity change (PNC), negative = inhibition is reported as inactive: 9.69%.
In the case of `CNS(=O)(=O)c1ccc(C)c(S(=O)(=O)NC)c1`, the activity change (PNC), negative = inhibition is reported as inactive: 0%.
In the case of `O=C(C1=C[C@@H]2[C@H]3C(=O)N(c4ccccc4)C(=O)[C@H]3[C@@H](C(=O)c3ccc(Cl)cc3)N2C=C1)c1ccccc1`, the activity change (PNC), negative = inhibition is reported as inactive: -26.9%.
In the case of `COc1cccc(C2C(C(=O)Nc3nc4ccccc4s3)=C(C)NC3=C2C(=O)CC(C)(C)C3)c1OC` (stereo not given), the activity change (PNC), negative = inhibition is reported as inconclusive: -69%.
With `Cc1ccsc1C(=O)OCc1csc(-c2ccccc2)n1` the activity change (PNC), negative = inhibition was inconclusive: -57.3%.
In the case of `COc1ccc(CNC(=O)c2c(O)c3cccc4c3n(c2=O)CCC4)cc1`, the activity change (PNC), negative = inhibition is reported as inactive: 5.09%.
With `CCCn1c(N2CCN(CC(=O)NCc3cccs3)CC2)nc2ccccc21` the activity change (PNC), negative = inhibition was active: -86.9%.
With `COc1cccc(-c2cc(C(=O)NC3CCCC3)no2)c1` the activity change (PNC), negative = inhibition was inactive: -2%.
In the case of `COc1ccc(CCNC2CC(=O)N(CCc3ccc(OC)c(OC)c3)C2=O)cc1OC` (stereo not given), the activity change (PNC), negative = inhibition is reported as inactive: 3.12%.
In the case of `COc1ccc(CN=Cc2[nH]c3ccc(Br)c(Cl)c3c2O)cc1`, the activity change (PNC), negative = inhibition is reported as inconclusive: -69.6%.
With `O=S(=O)(Nc1ccc2ccccc2c1)c1ccccc1` the activity change (PNC), negative = inhibition was inconclusive: -47.6%.
For `Cc1ccc(F)c(NC=C2C(=O)OC(C)(C)OC2=O)c1`, the activity change (PNC), negative = inhibition was inactive: 24.4%.
With `CC(C)OC(=O)c1nnn(-c2nonc2N)c1CN1CCCCCC1` the activity change (PNC), negative = inhibition was inconclusive: -74.8%.
In the case of `CC(C)CCNC(=O)c1cccnc1Sc1ccccc1`, the activity change (PNC), negative = inhibition is reported as inactive: 23.2%.
With `COc1ccccc1NS(=O)(=O)c1cccc(C(=O)N/N=C/c2ccc3c(c2)OCCO3)c1` the activity change (PNC), negative = inhibition was inconclusive: -51.3%.
In the case of `COCCn1c(SC(C)C(=O)Nc2ccc3c(c2)OCCO3)nc2ccccc2c1=O` (stereo not given), the activity change (PNC), negative = inhibition is reported as inconclusive: -39.5%.
With `CCN(CC)C(=O)c1ccc(C(=O)c2c(C)cc(C)cc2C)cc1` the activity change (PNC), negative = inhibition was inconclusive: -34.5%.
In the case of `COc1ccc(CNC(=O)c2cccs2)cc1`, the activity change (PNC), negative = inhibition is reported as active: -100%.
With `CC(O)C(O)C(O)C(O)C1NCCS1` (stereo not given) the activity change (PNC), negative = inhibition was inactive: 7.32%.
For `O=C(NNc1c2ccccc2nc2ccccc12)c1cc2ccccc2cc1O`, the activity change (PNC), negative = inhibition was inconclusive: -41.2%.
With `O=C(COC(=O)/C=C/c1nc2ccccc2s1)Nc1ccccc1Oc1ccccc1` the activity change (PNC), negative = inhibition was active: -108%.
For `O=C(Cn1cc(C(F)(F)F)cc(Cl)c1=O)Nc1cccc(Cl)c1`, the activity change (PNC), negative = inhibition was inconclusive: -41.1%.
With `NC(=O)CC[C@H](NC(=O)c1ccc(F)cc1)C(=O)OCC(=O)Nc1c(F)c(F)c(F)c(F)c1F` the activity change (PNC), negative = inhibition was active: -91.9%.
With `Cn1c(=O)n(C)c2cc([N+](=O)[O-])c(N3CCN(S(C)(=O)=O)CC3)cc21` the activity change (PNC), negative = inhibition was inconclusive: -34.7%.
For `Cc1ccc(Oc2cc(NC(=O)CCCn3nc([N+](=O)[O-])c(Cl)c3C)cc([N+](=O)[O-])c2)cc1`, the activity change (PNC), negative = inhibition was inactive: 16.6%.
For `O=C(NC1CCCc2ccccc21)C1CCN(S(=O)(=O)c2cccc(C(F)(F)F)c2)CC1` (stereo not given), the activity change (PNC), negative = inhibition was inconclusive: -61.5%.
For `CC(C)(C)N(NC(=O)Nc1ccccc1)C(=O)c1ccccc1`, the activity change (PNC), negative = inhibition was inconclusive: -76.2%.
For `O=C(CSc1nnc(-c2ccccc2)o1)N1CCc2ccccc2C1`, the activity change (PNC), negative = inhibition was inactive: 7.4%.
In the case of `C=CCn1c(N2C(=O)CC(Cc3ccccc3)C2=O)nc2ccccc21` (stereo not given), the activity change (PNC), negative = inhibition is reported as inconclusive: -77.2%.
With `COc1cccc(C(=O)Nc2ccc(C(=O)O)cc2)c1` the activity change (PNC), negative = inhibition was inactive: 18.6%.
With `Cc1nnc(C)n1/N=C/c1cccnc1` the activity change (PNC), negative = inhibition was inconclusive: -34.6%.
For `Cc1ccc2c(CC(=O)NCc3cccs3)coc2c1`, the activity change (PNC), negative = inhibition was inconclusive: -38.8%.
With `COc1ccc(/C=C/C(=O)c2ccc(Cl)s2)cc1O` the activity change (PNC), negative = inhibition was inactive: -11.3%.
In the case of `CC(c1ccccc1)C1C(C#N)=C(N)OC2=C1C(=O)CCC2` (stereo not given), the activity change (PNC), negative = inhibition is reported as inactive: 34%.
For `Cc1ccc(N2CC(C)Cn3c2nc2c3c(=O)n(CC(=O)OCc3ccccc3)c(=O)n2C)cc1C` (stereo not given), the activity change (PNC), negative = inhibition was inconclusive: -52.3%.
For `O=C(CCc1ccccc1)Nc1ccccc1F`, the activity change (PNC), negative = inhibition was inconclusive: -62.9%.
In the case of `CCC(Sc1nncn1C)C(=O)Nc1ccccc1OC` (stereo not given), the activity change (PNC), negative = inhibition is reported as inactive: 3.88%.
In the case of `CCOC(=O)c1nnn(CC(=O)N2N=C(c3cc(C)ccc3C)CC2c2ccc(OC)cc2)c1C(=O)OCC` (stereo not given), the activity change (PNC), negative = inhibition is reported as inconclusive: -38.7%.
